Source: publication PMC10627786
These are yes or no findings as the source states them, for the method shown. Binding seen in cells or lysates may run through a third protein. Here binding means that the protein was enriched with, or labelled near, the bait; the list need not be complete. Tags and fused reporters may be left off the sequences shown.

Assays:
[1] = biological target: T1, SYNJ2BP fused with BirA*-FLAG (BioID bait) (human) (UniProt P57105); assay: proximity labelling; BioID in stable inducible Flp-In T-REx 293 cells expressing BirA*-FLAG baits; mass spectrometry of biotinylated preys; SAINTexpress, two biological replicates per bait, 50 negative control runs, BFDR threshold 1%
T1 sequence: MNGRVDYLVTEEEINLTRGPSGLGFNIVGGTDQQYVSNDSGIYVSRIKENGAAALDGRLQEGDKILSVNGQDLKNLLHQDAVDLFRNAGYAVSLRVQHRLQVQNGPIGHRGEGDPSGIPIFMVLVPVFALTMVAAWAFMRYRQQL

[2] = biological target: T2, ESYT2 fused with BirA*-FLAG (BioID bait) (human) (UniProt A0FGR8); assay: as above
T2 sequence: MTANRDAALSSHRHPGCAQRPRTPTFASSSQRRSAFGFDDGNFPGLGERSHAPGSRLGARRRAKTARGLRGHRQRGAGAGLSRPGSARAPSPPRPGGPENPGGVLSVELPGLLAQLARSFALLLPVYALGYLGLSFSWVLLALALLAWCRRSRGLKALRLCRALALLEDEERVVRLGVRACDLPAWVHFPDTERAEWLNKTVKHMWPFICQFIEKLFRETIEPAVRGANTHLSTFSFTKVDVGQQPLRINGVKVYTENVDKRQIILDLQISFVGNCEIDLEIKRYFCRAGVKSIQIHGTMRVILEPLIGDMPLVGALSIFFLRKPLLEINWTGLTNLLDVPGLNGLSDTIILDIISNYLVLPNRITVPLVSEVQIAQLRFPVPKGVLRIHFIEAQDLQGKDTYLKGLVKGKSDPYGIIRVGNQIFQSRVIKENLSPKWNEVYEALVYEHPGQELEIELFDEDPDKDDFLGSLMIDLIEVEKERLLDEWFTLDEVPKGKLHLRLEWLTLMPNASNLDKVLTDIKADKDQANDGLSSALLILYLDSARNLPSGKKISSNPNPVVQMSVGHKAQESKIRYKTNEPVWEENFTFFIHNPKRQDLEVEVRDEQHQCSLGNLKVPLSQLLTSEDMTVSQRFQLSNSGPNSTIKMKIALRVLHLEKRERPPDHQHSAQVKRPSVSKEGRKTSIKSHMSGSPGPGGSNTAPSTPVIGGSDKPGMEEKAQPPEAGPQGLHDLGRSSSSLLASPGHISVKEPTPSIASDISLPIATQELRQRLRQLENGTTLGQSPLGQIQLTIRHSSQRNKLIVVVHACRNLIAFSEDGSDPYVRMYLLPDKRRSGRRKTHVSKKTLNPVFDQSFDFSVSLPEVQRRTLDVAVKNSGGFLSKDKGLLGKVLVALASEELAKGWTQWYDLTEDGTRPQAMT

B1: ESYT1 (endogenous prey in BioID) (protein, UniProt Q9BSJ8 1-1104)
chain: MERSPGEGPSPSPMDQPSAPSDPTDQPPAAHAKPDPGSGGQPAGPGAAGEALAVLTSFGRRLLVLIPVYLAGAVGLSVGFVLFGLALYLGWRRVRDEKERSLRAARQLLDDEEQLTAKTLYMSHRELPAWVSFPDVEKAEWLNKIVAQVWPFLGQYMEKLLAETVAPAVRGSNPHLQTFTFTRVELGEKPLRIIGVKVHPGQRKEQILLDLNISYVGDVQIDVEVKKYFCKAGVKGMQLHGVLRVILEPLIGDLPFVGAVSMFFIRRPTLDINWTGMTNLLDIPGLSSLSDTMIMDSIAAFLVLPNRLLVPLVPDLQDVAQLRSPLPRGIIRIHLLAARGLSSKDKYVKGLIEGKSDPYALVRLGTQTFCSRVIDEELNPQWGETYEVMVHEVPGQEIEVEVFDKDPDKDDFLGRMKLDVGKVLQASVLDDWFPLQGGQGQVHLRLEWLSLLSDAEKLEQVLQWNWGVSSRPDPPSAAILVVYLDRAQDLPLKKGNKEPNPMVQLSIQDVTQESKAVYSTNCPVWEEAFRFFLQDPQSQELDVQVKDDSRALTLGALTLPLARLLTAPELILDQWFQLSSSGPNSRLYMKLVMRILYLDSSEICFPTVPGCPGAWDVDSENPQRGSSVDAPPRPCHTTPDSQFGTEHVLRIHVLEAQDLIAKDRFLGGLVKGKSDPYVKLKLAGRSFRSHVVREDLNPRWNEVFEVIVTSVPGQELEVEVFDKDLDKDDFLGRCKVRLTTVLNSGFLDEWLTLEDVPSGRLHLRLERLTPRPTAAELEEVLQVNSLIQTQKSAELAAALLSIYMERAEDLPLRKGTKHLSPYATLTVGDSSHKTKTISQTSAPVWDESASFLIRKPHTESLELQVRGEGTGVLGSLSLPLSELLVADQLCLDRWFTLSSGQGQVLLRAQLGILVSQHSGVEAHSHSYSHSSSSLSEEPELSGGPPHITSSAPELRQRLTHVDSPLEAPAGPLGQVKLTLWYYSEERKLVSIVHGCRSLRQNGRDPPDPYVSLLLLPDKNRGTKRRTSQKKRTLSPEFNERFEWELPLDEAQRRKLDVSVKSNSSFMSRERELLGKVQLDLAETDLSQGVARWYDLMDNKDKGSS
[1]
  binding: binds
[2]
  binding: binds
